# Data reported in the supplement of paper PMC10735217.
# Counter-ions that a name gives are not always drawn. Some of the results follow. Single values are uncertain here, since repeats match poorly.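 The human kidney-derived cells carry a stably integrated construct of eight TEAD-binding elements driving luciferase, read by luminescence in a drug-repurposing library screen. A compound counts as a hit when its signal is more than five robust Z scores above the plate mean.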
# System: HEK293A TEAD-LUC reporter
# Experiment: TEAD-luciferase reporter activity (YAP activation), robust Z score vs plate; higher = stronger YAP/TEAD activation
# Details: 24 h
SMILES,TEAD-luciferase reporter activity (compound concentration: 200 nM),TEAD-luciferase reporter activity (compound concentration: 2 uM),TEAD-luciferase reporter activity (compound concentration: 10 uM)
CC[C@H]1CN2CCc3cc(OC)c(OC)cc3[C@@H]2C[C@@H]1C[C@H]1NCCc2cc(O)c(OC)cc21 [Cephaeline],inactive: 0.47,inactive: -1.66,inactive: -1.28
CN[C@@H]1CC[C@@H](c2ccccc2)c2ccccc21,inactive: 1.24,inactive: -1.13,inactive: -1.24
c1ccc2nc(N3CCNCC3)ccc2c1,inactive: -1.57,inactive: -0.709,inactive: -0.349
OCc1cccc(Cc2c[nH]cn2)c1O,active: 5.32,inactive: -1.04,inactive: 0.771
O=C1CC[C@@]2(O)[C@H]3Cc4ccc(O)c5c4[C@@]2(CCN3)[C@H]1O5 [Noroxymorphone hydrochloride],inactive: -0.0725,–,inactive: -1.04
CCC(O)(c1cccc(OC)c1)C(C)CN(C)C (stereo not given),inactive: -0.78,inactive: -0.435,inactive: 0.577
CC(C)C[C@H](NC(=O)[C@@H](N)CCCCN)C(=O)N[C@H](C(=O)N[C@H](C(=O)N[C@H](C(=O)NCC(=O)N[C@@H](C)C(=O)N[C@@H](CS)C(=O)NCC(=O)N[C@H](C(=O)NCC(=O)N[C@@H](CCCCN)C(=O)N[C@@H](CO)C(=O)O)C(C)C)C(C)C)C(C)C)C(C)C,inactive: -0.251,inactive: -0.594,inactive: -0.277
CN1C(=O)CN=C(c2ccccc2F)c2cc([N+](=O)[O-])ccc21 [Flunitrazepam],inactive: -1.35,inactive: -0.231,inactive: 0.829
CC(=O)N[C@@H]1[C@@H](O[C@H]2O[C@@H](C(=O)O)[C@H](O)[C@@H](O)[C@@H]2O)[C@@H](OS(=O)(=O)O[O-])[C@@H](CO)O[C@H]1O,inactive: 1.53,inactive: 0.491,inactive: 1.88
[O-][I+2]([O-])[O-],inactive: -1.48,–,inactive: 3.39
CC[C@H](C)[C@H](NC(=O)[C@H](CC(C)C)NC(=O)[C@H](CC(C(=O)O)C(=O)O)NC(=O)[C@H](CCC(N)=O)NC(=O)[C@H](CC(N)=O)NC(=O)[C@H](CC(C(=O)O)C(=O)O)NC(=O)[C@H](CCC(N)=O)NC(=O)[C@H](CC(C)C)NC(=O)[C@H](CC(C(=O)O)C(=O)O)NC(=O)[C@H](CC(C(=O)O)C(=O)O)NC(=O)[C@H](CCC(=O)O)NC(=O)CN)C(=O)N[C@@H](CCCNC(=N)N)C(=O)N[C@@H](CC(C(=O)O)C(=O)O)C(=O)N[C@@H](CCCCN)C(=O)N[C@@H](CO)C(=O)N[C@@H](CC(N)=O)C(N)=O [Conantokin G],inactive: 0.307,inactive: -1.12,inactive: -1.65
CCOC(C(=O)OCCN(C)C)(c1ccccc1)c1ccccc1 [Dimenoxadol],inactive: -0.669,inactive: 1.43,inactive: 0.0311
CC(C)(C)NCC(O)c1ccccc1F (stereo not given) [flerobuterol],inactive: 0.124,inactive: -1.09,inactive: -0.828
Cc1cc2c(cc1-c1cc(/C=C3/SC(=O)NC3=O)ccc1OC(F)(F)F)C(C)(C)CCC2(C)C,inactive: -1.65,inactive: -1.17,inactive: 2.05
FC(F)(F)c1cccc(C2=CCN(CCc3ccc(-c4ccccc4)cc3)CC2)c1,inactive: 3.19,inactive: -1.23,inactive: 3.17
O=C(NC1CN2CCC1CC2)c1ccc(Cl)cc1 (stereo not given),inactive: 1.49,inactive: -0.838,inactive: -0.734
O=C(C1CCCN1C(=O)c1ccc(C(F)(F)F)cc1)N1CCC(N2CCOCC2=O)CC1 (stereo not given),inactive: -1.09,–,inactive: -0.0776
CC(C)OC(=O)Nc1cccc(Cl)c1 [Chlorpropham],inactive: 0.961,inactive: 1.75,inactive: -0.581
C[C@]12CC[C@H](O)CC1=CC(=O)[C@@H]1[C@@H]2CC[C@]2(C)C(=O)CC[C@@H]12,inactive: 0.679,inactive: -1.11,inactive: 0.0128
CCCNCCc1ccccc1,inactive: 1.03,inactive: 0.266,active: 5.56
COc1ccc(C(C)C)cc1CN[C@@H]1C2CCN(CC2)[C@H]1C(c1ccccc1)c1ccccc1,inactive: 0.115,inactive: 0.0669,inactive: -0.299
COP(=S)(OC)Oc1ccc(SC)c(C)c1 [Fenthion],inactive: 0.182,inactive: -0.792,inactive: -0.609
Cc1ccc([C@@]2(O)C(=O)O[C@@H]3[C@@H](O)CO[C@@]32O)o1 [methoxatone],inactive: -0.817,inactive: 1.27,inactive: -1.73
CC(=O)OC1CC[C@H]2[C@@H]3CC[C@H]4C/C(=N/Oc5ccc([N+](=O)[O-])cc5)C(Cl)C[C@]4(C)[C@H]3CC[C@]12C (stereo not given in full),inactive: -0.252,inactive: 3.87,inactive: 0.535
CN1C(=O)C(O)N=C(c2ccccc2Cl)c2cc(Cl)ccc21 (stereo not given) [Lormetazepam],inactive: -0.56,inactive: -0.579,inactive: -0.882
CCN1CCN(/C=C2\N=C3CN=C(c4ccccc4Cl)c4cc([N+](=O)[O-])ccc4N3C2=O)CC1,inactive: -0.99,inactive: 0.746,inactive: 1.93
COc1ccc(/C=C\c2cc(OC)c(OC)c(OC)c2)cc1N,active: 9.65,inactive: 0.26,active: 6.39

# Another view of part of the listing above.
SMILES	TEAD-luciferase reporter activity (compound concentration: 200 nM)	TEAD-luciferase reporter activity (compound concentration: 2 uM)	TEAD-luciferase reporter activity (compound concentration: 10 uM)
C[C@]12CC[C@H](O)CC1=CC(=O)[C@@H]1[C@@H]2CC[C@]2(C)C(=O)CC[C@@H]12	inactive: 0.679	inactive: -1.11	inactive: 0.0128
CCCNCCc1ccccc1	inactive: 1.03	inactive: 0.266	active: 5.56
COc1ccc(C(C)C)cc1CN[C@@H]1C2CCN(CC2)[C@H]1C(c1ccccc1)c1ccccc1	inactive: 0.115	inactive: 0.0669	inactive: -0.299

# Carrying on.

SMILES,TEAD-luciferase reporter activity (compound concentration: 200 nM),TEAD-luciferase reporter activity (compound concentration: 2 uM),TEAD-luciferase reporter activity (compound concentration: 10 uM)
O=C(C1CCCN1C(=O)c1cccc(Cl)c1)N1CCC(N2Cc3ccccc3C2=O)CC1 (stereo not given),inactive: -0.353,–,inactive: 1.22
COC(=O)CNC(=O)C(C)(C)NC(=O)c1cc2c(n(CC3CCCCC3)c1=O)CCCCCC2,inactive: 1.04,inactive: 0.213,inactive: -0.703
CCNC(=O)c1nc(CN(C)C)n(-c2ccc(Cl)cc2C(=O)c2ccccc2Cl)n1,inactive: -0.271,inactive: 3.97,inactive: 4.2
CN1C[C@H](CNC(=O)OCc2ccccc2)C[C@@H]2c3cccc4c3c(cn4C)C[C@H]21 [Metergoline],inactive: 0.136,–,inactive: 0.026
CN1C[C@H](CNC(=O)OCc2ccccc2)C[C@@H]2c3cccc4c3c(cn4C)C[C@H]21 [metergoline],–,inactive: -0.435,–
O=C1CN=C(c2cc([N+](=O)[O-])ccc2Cl)c2cc([N+](=O)[O-])ccc2N1,inactive: -0.887,inactive: -0.585,inactive: 1.8
OCCOc1ccccc1,inactive: -0.449,inactive: -1.47,inactive: -1.09
O=C1CN=C(c2ccc(F)cc2)c2cc(Cl)ccc2N1,inactive: -0.27,inactive: -2.22,inactive: 0.472
N=C1NC(=O)N2CC12 (stereo not given) [Imexon],inactive: 1.54,–,inactive: 1.02
N=C1NC(=O)N2CC12 (stereo not given),–,inactive: -1.45,–
Cn1cc2c(NC3=NCCN3)cccc2n1,inactive: -0.507,inactive: 0.435,inactive: 0.608
C=CCC(N)Cc1ccccc1 (stereo not given),inactive: 0.34,inactive: -2,inactive: -2.01
O=C1CCC(=O)N1C[C@H]1CC[C@H]2CN(c3ncccn3)CCN2C1 [Sunepitron hydrochloride],inactive: -1.58,inactive: 4.66,inactive: 2.73
C[C@@]1(O)[C@H](O)[C@@H](CO)O[C@H]1n1ccc2c(N)ncnc21,inactive: -0.794,inactive: -0.011,inactive: 0.0534
CC[C@H]1C[C@H]2C[C@H]3c4[nH]c5ccccc5c4CCN(C2)C13 [Ibogamine],inactive: -0.326,inactive: -1.3,inactive: 2.43
C[C@]12CC[C@H]3[C@@H](CCC4=CC(=O)C=C[C@@]43C)[C@@H]1CC[C@@H]2OC1=CCCC1,inactive: -0.379,inactive: 1.07,inactive: 1.61
Fc1ccccc1C1=NCC(=S)N(CC(F)(F)F)c2ccc(Cl)cc21 [Quazepam CIV],inactive: 0.0555,–,inactive: 0.0455
O=C(O[C@H]1C[N+]2(CCCOc3ccccc3)CCC1CC2)C(O)(c1cccs1)c1cccs1 [aclidinium bromide],inactive: 0.202,inactive: -1.29,inactive: -0.932
CC(C)c1cccc(C(C)C)c1O,inactive: 0.152,–,inactive: 1.89
CC(C)c1cccc(C(C)C)c1O [propofol phosphate],–,inactive: -1.33,–
C[N+]1(C)CCCC(OC(=O)C(O)(c2ccccc2)c2ccccc2)C1 (stereo not given) [Mepenzolate],inactive: -1.03,inactive: 3.18,inactive: 2.33
C=CCN1CC[C@]23c4c5ccc(O)c4O[C@H]2C(=O)CC[C@@]3(O)C1C5 [Naloxon],inactive: -0.397,inactive: -1.85,inactive: -1.15
CN1C[C@H](CO)C[C@@H]2c3cccc4[nH]cc(c34)C[C@H]21,inactive: -1.01,inactive: 0.168,inactive: 0.856
C[C@H](CS(C)(=O)=O)n1ccc2c(C(F)(F)F)c(C#N)ccc21,inactive: -0.953,inactive: 1.82,inactive: 0.237
O=C(OC1CC2CCC(C1)[N+]21CCCC1)C(O)(c1ccccc1)c1ccccc1 (stereo not given) [trospium chloride extended release],inactive: -0.423,inactive: -1.94,inactive: 2.01
"C#C[C@]1(O)C=C[C@H]2[C@@H]3CCC4=CC(=O)CC[C@@H]4[C@H]3CC[C@@]21CC [gestodene, transdermal]",–,inactive: -0.769,–
"C#C[C@]1(O)C=C[C@H]2[C@@H]3CCC4=CC(=O)CC[C@@H]4[C@H]3CC[C@@]21CC [gestodene, transdermal, Bayer]",inactive: -1.83,–,inactive: -0.79
